Reference: article PMC10643122
Results are given in words; binding and its absence hold for the method and conditions named. Some binding calls cover weakened binding; strength is not graded here.

Protein sequences, listed by entry. Tags and fused reporters are not part of them. Lines headed by an entry give the natural chain unless they say otherwise; changes in a name come on top. Residues count along the entry.
UniProt Q38SD2, residues 20-2015: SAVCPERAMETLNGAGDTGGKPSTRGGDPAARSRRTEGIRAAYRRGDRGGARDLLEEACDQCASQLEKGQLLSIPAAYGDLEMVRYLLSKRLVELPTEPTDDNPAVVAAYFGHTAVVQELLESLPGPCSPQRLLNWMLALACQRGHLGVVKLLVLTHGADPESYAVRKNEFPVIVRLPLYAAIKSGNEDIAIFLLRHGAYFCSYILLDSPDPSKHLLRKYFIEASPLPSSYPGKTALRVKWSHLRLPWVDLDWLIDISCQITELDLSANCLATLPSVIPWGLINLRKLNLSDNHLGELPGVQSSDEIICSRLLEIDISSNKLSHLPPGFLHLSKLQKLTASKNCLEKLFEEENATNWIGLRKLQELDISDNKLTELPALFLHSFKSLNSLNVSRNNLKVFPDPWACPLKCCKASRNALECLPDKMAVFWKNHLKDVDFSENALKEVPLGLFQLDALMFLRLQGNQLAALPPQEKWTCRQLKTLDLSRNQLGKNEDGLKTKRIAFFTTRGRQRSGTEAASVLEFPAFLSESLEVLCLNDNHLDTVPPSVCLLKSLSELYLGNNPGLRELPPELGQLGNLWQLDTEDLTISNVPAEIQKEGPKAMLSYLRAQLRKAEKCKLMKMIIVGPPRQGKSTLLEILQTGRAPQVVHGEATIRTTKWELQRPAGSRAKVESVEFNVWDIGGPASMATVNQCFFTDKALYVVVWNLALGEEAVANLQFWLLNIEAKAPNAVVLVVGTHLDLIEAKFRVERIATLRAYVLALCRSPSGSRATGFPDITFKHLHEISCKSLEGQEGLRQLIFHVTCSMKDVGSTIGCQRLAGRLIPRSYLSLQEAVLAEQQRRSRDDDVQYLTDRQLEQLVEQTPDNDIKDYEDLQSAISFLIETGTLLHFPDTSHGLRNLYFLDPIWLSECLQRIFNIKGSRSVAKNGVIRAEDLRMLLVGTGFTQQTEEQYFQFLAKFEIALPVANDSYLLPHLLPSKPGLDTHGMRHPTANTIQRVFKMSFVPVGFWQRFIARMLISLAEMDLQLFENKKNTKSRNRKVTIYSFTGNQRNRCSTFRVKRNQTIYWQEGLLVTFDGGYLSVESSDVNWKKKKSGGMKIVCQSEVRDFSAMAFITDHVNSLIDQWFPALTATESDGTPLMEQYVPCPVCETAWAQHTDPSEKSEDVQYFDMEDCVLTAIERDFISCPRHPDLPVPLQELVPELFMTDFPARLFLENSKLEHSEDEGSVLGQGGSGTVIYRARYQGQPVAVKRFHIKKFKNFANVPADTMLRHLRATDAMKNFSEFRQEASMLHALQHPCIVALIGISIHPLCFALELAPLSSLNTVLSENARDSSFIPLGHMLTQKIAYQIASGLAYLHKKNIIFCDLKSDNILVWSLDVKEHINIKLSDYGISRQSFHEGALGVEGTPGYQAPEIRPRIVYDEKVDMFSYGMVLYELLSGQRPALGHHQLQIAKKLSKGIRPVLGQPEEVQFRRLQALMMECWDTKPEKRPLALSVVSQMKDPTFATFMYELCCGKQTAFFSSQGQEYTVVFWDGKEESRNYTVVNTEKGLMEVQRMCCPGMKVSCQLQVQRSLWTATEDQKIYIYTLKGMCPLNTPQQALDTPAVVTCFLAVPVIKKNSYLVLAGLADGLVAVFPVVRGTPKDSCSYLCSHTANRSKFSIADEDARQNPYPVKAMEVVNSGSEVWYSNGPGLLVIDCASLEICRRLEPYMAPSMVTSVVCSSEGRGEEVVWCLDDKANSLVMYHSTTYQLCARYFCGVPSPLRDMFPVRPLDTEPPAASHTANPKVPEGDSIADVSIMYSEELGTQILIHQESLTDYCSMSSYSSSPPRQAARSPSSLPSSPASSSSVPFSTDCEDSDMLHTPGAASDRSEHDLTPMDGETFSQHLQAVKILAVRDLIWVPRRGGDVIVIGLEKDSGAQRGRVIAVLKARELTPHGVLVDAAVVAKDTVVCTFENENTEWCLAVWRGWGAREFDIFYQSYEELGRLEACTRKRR
UniProt P51149: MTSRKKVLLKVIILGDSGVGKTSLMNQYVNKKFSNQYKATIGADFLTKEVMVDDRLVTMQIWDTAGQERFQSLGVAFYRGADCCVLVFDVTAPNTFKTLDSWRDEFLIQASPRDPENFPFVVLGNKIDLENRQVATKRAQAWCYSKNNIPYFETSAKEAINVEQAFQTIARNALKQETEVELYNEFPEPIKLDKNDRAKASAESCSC

Molecular target: LRRK1(Δ1–19) (human) (UniProt Q38SD2)
Test: cryo-EM structure; 2 μM LRRK1(Δ1–19), 3 μM Rab7a, 1 mM GTP and 1 mM AMPcPP; both purified

| Substance | binding |
| --- | --- |
| Rab7a (from UniProt P51149 1-207) | no binding (tested: 3 μM Rab7a with 2 μM LRRK1(Δ1–19)) |
| LRRK1(Δ1–19) (from UniProt Q38SD2-1 20-2015) (domain or fragment) | binds weakly |
